Source: PubChem BioAssay AID493014 (National Center for Advancing Translational Sciences (NCATS), 2011)
This is one part of the list. These are further read-outs of the screen, such as a control signal, another cell line or another target. No call is given for them. Compounds called inactive in the main read-out are mostly missing here. Words in brackets tell the shape of the fitted curve; partial curves, single points and poor fits give uncertain potencies.

Test: qHTS Assay to Find Inhibitors of Chronic Active B-Cell Receptor Signaling
Settings: ABC-DLBCL IkBa-CBG/CBR reporter, luminescence ratio (green luciferase fused to IkBa over red control in TMD8 lymphoma cells), 4 h
How it was run: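 Concentration-response series (up to 46 uM) were applied to TMD8 dual-reporter cells for 4 h at 37C with doxycycline. Green/red ratio, after filter-overlap correction, defined %Activity; red signal alone was normalised to basal cells and zero luminescence.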

[1] = measured here: CBR red luminescence, cell number
[2] = measured here: IkBa-CBG green luminescence

For COc1cccc2cc(-c3nnc(Nc4ccccc4C)s3)c(=O)oc12, the AC50 [1] was 0.708 µM [falling, full curve, poor fit].
For Cc1ccc2nc(/C(C#N)=C/c3ccc(-c4ccccc4C(=O)O)o3)[nH]c2c1, the AC50 [1] was 17.8 µM [falling, partial curve].
With O=C(O)CCCN1C(=O)/C(=C/c2ccncc2)SC1=S the AC50 [1] was 0.224 µM [falling, full curve, poor fit] and the AC50 [2] was 17.8 µM [rising, single point].
In the case of CCOC(=O)c1ccc(NNC(=O)CC)c([N+](=O)[O-])c1, the AC50 [1] was 14.1 µM [rising, single point].
For Cn1nc(-c2ccccc2)c(CSc2cccc(Cl)c2)c1Cl, the AC50 [1] was 23.1 µM [rising, single point].
For Cc1ccc(/C=c2\sc3nc(-c4ccco4)nn3c2=O)o1, the AC50 [1] was 5.8 µM [rising, partial curve].
With S=C(NCc1ccccc1)NNc1ccccc1 the AC50 [1] was 22.4 µM [falling, single point] and the AC50 [2] was 15.8 µM [falling, single point].
With Cn1c(=O)[nH]c2sc3c(c2c1=O)CC(C)(C)OC3 the AC50 [1] was 0.164 µM [falling, full curve, poor fit].
With O=C(c1ccccc1)c1cnc2ccc(Cl)cc2c1N1CCOCC1 the AC50 [1] was 20 µM [rising, single point].
For OCc1ccnc2c(O)cccc12, the AC50 [2] was 5.62 µM [falling, full curve].
With CCCC12CN3CC(C)(CN(C1)C3c1ccc3c(c1)OCO3)C2=O (centres undefined) the AC50 [1] was 2.06 µM [rising, single point].
In the case of COc1cc2c(cc1OC)/C(=C/C(=O)c1ccccc1)NCC2, the AC50 [1] was 1 µM [rising, full curve].
With O=C(CC1Nc2ccccc2NC1=O)Nc1ccccc1 (centres undefined) the AC50 [1] was 18.4 µM [falling, partial curve].
With O=C(Nc1ncc([N+](=O)[O-])s1)c1ccco1 the AC50 [1] was 2.24 µM [falling, full curve, poor fit].
In the case of COc1ccc(-n2cc(CN(C)Cc3n[nH]c(=O)[nH]3)c(-c3cccc(F)c3)n2)cc1, the AC50 [1] was 0.447 µM [rising, full curve, poor fit].
For COc1ccc(OCC(=O)Nc2cccc(-c3nc4ccccc4[nH]3)c2)cc1, the AC50 [1] was 7.94 µM [falling, partial curve, poor fit].
With O=C(Nc1ccc2c(c1)OCO2)c1cccc(S(=O)(=O)N2CCCC2)c1 the AC50 [1] was 29.1 µM [falling, single point].
With Cc1cccc(C(=O)NC(=S)NNC(=O)c2ccc(Cl)cc2)c1 the AC50 [1] was 32.6 µM [rising, single point] and the AC50 [2] was 29.1 µM [falling, single point].
With CCNC(=S)N1C2CCC1CC(NC(=O)NC1CCCCC1)C2 (centres undefined) the AC50 [1] was 32.6 µM [rising, single point].
In the case of O=C(NC1=NCCS1)c1cc(-c2ccc(-c3ccccc3)cc2)nc2ccccc12, the AC50 [1] was 2.06 µM [falling, partial curve, poor fit].
For COc1ccc(NC(=O)CCCn2cc([N+](=O)[O-])cn2)cc1, the AC50 [1] was 0.562 µM [rising, full curve, poor fit].
With O=C1Nc2cc(Cl)c(Cl)cc2N(O)N1c1ccccc1 the AC50 [1] was 32.6 µM [falling, partial curve, poor fit].
For CCOc1ccc(Oc2nc(N(CC)CC)nc(N3CCOCC3)n2)nn1, the AC50 [2] was 11.2 µM [falling, partial curve, poor fit].
For COc1ccc(Br)cc1Cn1nnc(C(=O)Nc2ccc3c(c2)OCCO3)c1N, the AC50 [1] was 2.24 µM [falling, full curve, poor fit].
With O=C(Nc1nc(-c2cccc([N+](=O)[O-])c2)cs1)C(c1ccccc1)c1ccccc1 the AC50 [1] was 2.59 µM [falling, full curve, poor fit].
For Cc1ccc(N/C(N)=N/c2nc(C)cc(C)n2)cc1, the AC50 [1] was 7.31 µM [falling, partial curve].
With COc1cc(C(=O)Nc2sc3c(c2C(=O)O)CCC3)cc(OC)c1OC the AC50 [1] was 0.2 µM [falling, full curve, poor fit].
With Cn1ncc2c(NCc3cccc(Cl)c3)ncnc21 the AC50 [1] was 10 µM [falling, partial curve].
For Cc1ccc(S(=O)(=O)Nc2ccc(OCC(=O)N3CCOCC3)cc2)c(C)c1NS(C)(=O)=O, the AC50 [1] was 0.501 µM [falling, partial curve, poor fit].
For Cc1cc(C)cc(NC2=NC3(CCCCC3)N=C(N)N2)c1, the AC50 [1] was 31.6 µM [rising, single point] and the AC50 [2] was 20 µM [falling, single point].
For Cc1ccc(OC(C)C(=O)N(Cc2cccs2)C2CCS(=O)(=O)C2)cc1C (centres undefined), the AC50 [1] was 11.2 µM [falling, partial curve, poor fit].
For CC(CC12CC3CC(CC(C3)C1)C2)NCc1ccccc1O (centres undefined), the AC50 [1] was 15.8 µM [falling, single point].
With O=c1[nH]c(=O)c2nc(-c3ccc(Cl)cc3)cnc2[nH]1 the AC50 [1] was 35.5 µM [falling, single point].
For CCOc1cc(/C=C/c2cccc[n+]2C)ccc1O, the AC50 [1] was 12.6 µM [rising, single point].
For COc1cccc2sc(N3CCN(C(=O)c4ccc([N+](=O)[O-])o4)CC3)nc12, the AC50 [1] was 23.1 µM [falling, single point].
In the case of N#C/C(=C/c1ccc(N2CCCCC2)cc1)c1cccc(F)c1, the AC50 [1] was 6.51 µM [rising, partial curve].
For CCCc1nnc(-c2ccc(OC)cc2)o1, the AC50 [1] was 25.9 µM [rising, single point].
For O=C(N/N=C/c1coc2ccccc2c1=O)c1ccccc1, the AC50 [1] was 3.16 µM [falling, partial curve, poor fit].
For O=C(COC(=O)c1ccc(O)cc1O)Nc1nnc(-c2ccccc2)o1, the AC50 [1] was 16.4 µM [falling, partial curve, poor fit].
For CN(C(=O)CSc1cc(Cl)ccc1Cl)C1CCS(=O)(=O)C1 (centres undefined), the AC50 [1] was 23.1 µM [falling, partial curve, poor fit].
With O=C(NC1CCCC1)c1cc2c(ccc3ccccc32)o1 the AC50 [1] was 0.231 µM [falling, full curve, poor fit].
With COc1ccc(CCNC(=O)c2cc(C3CC3)on2)cc1OC the AC50 [1] was 0.501 µM [rising, full curve, poor fit].
With CC1=NN(c2ccc([N+](=O)[O-])cc2)C(c2ccccc2)C1 (centres undefined) the AC50 [1] was 14.1 µM [falling, partial curve, poor fit].
For Cc1nc(C#N)c(N/N=C/c2cccc(Cl)c2)o1, the AC50 [1] was 25.9 µM [rising, single point].
In the case of Cn1cnc2cc(NCc3ccccc3O)ccc21, the AC50 [1] was 15.8 µM [falling, single point].
For Cc1ccccc1CNC(=O)C(=O)NCC(c1ccco1)S(=O)(=O)c1ccc(F)cc1 (centres undefined), the AC50 [1] was 5.62 µM [rising, single point].
For CC(C)(C)c1ccc(C(=O)NCCC(=O)NNC(=O)COc2ccccc2F)cc1, the AC50 [1] was 20.6 µM [rising, partial curve, poor fit] and the AC50 [2] was 13 µM [falling, partial curve, poor fit].
In the case of Cc1cccc(CN2CCc3c(OCC(=O)N4CCCc5ccccc54)cccc3C2=O)c1, the AC50 [1] was 6.51 µM [falling, partial curve].
With O=C(O)C1C2C=CC(O2)C1C(=O)Nc1ccccc1C(F)(F)F (centres undefined) the AC50 [1] was 1.46 µM [falling, partial curve, poor fit].
With CN1CCc2c(sc(/N=C/c3c[nH]c4ccccc34)c2C#N)C1 the AC50 [1] was 2.82 µM [falling, partial curve, poor fit].
With O=[N+]([O-])c1ccc(COc2cccnc2)cc1 the AC50 [1] was 14.1 µM [rising, single point].
For CC1CCc2[nH]c3ccc(C(=O)N(C)CC(=O)Nc4ccc(F)cc4)cc3c2C1 (centres undefined), the AC50 [1] was 35.5 µM [falling, single point].
In the case of Cc1cccc(OCCOC(=O)c2ccc(F)c(S(=O)(=O)N3CCOCC3)c2)c1, the AC50 [1] was 1.84 µM [rising, partial curve, poor fit].
In the case of O=C(Nc1ccc2ccccc2c1)N1CCN(c2ncccc2C(F)(F)F)CC1, the AC50 [1] was 12.6 µM [falling, single point].
In the case of COc1cccc(/C=C2/SC(=S)N(CCCC(=O)Nc3ccc(O)cc3)C2=O)c1, the AC50 [1] was 2.82 µM [falling, partial curve].
For Cc1cccc(C(=O)NC(=S)Nc2ccccc2C(=O)O)c1, the AC50 [1] was 10 µM [falling, partial curve].
In the case of O=C(O)Cc1ccc(NC(=O)COc2ccc3ccccc3c2)cc1, the AC50 [1] was 11.2 µM [falling, partial curve].
For CCCc1[nH]n(-c2nc3ccccc3s2)c(=O)c1C=NCCN1CCOCC1, the AC50 [1] was 16.4 µM [falling, partial curve, poor fit].
With O=C(CSc1c2c(nc3cc(Cl)ccc13)CCCC2)NCCCN1CCOCC1 the AC50 [1] was 7.94 µM [falling, partial curve, poor fit].
In the case of CC(=O)N1CCc2cc(C(=O)CN3CCCCC3)ccc21, the AC50 [1] was 14.1 µM [rising, single point].
In the case of Cc1nc2sc(-c3ccccc3)cc2c(=O)n1N, the AC50 [1] was 3.55 µM [falling, full curve, poor fit].
For CC(C)c1ccc(/C=N/NC(=O)c2c(Cl)cnn2C)cc1, the AC50 [1] was 9.2 µM [falling, partial curve].
In the case of CCCC1=C(C(=O)OCC)C(c2ccco2)n2ncnc2N1 (centres undefined), the AC50 [1] was 5.62 µM [falling, full curve].
For N#CC1=C(N)Oc2n[nH]c(-c3ccccc3)c2C1c1cccnc1 (centres undefined), the AC50 [1] was 29.1 µM [rising, single point].
